Source: patent US8338624B2, “Isoflavone derivatives and uses thereof” (Yeda Research and Development Co., Ltd., priority 2007, dated 2012)
For some assays here: At least one compound was matched to its structure with a doubt left. Some of these results come from one statement about several compounds together.

Legend:
[1] = system: Human umbilical vascular smooth muscle cells (VSMC); test: DNA synthesis by [3H]-thymidine incorporation, normal VSMC; format: cell-based
Experimental: Human umbilical vascular smooth muscle cells (VSMC) sensitive to estrogen, were grown in culture as described above, and used only at passages 1-3, when expression of smooth muscle actin was clearly demonstrable (Somjen et al. 2000). The ratio of the expression of mRNA for ERα to ERβ was 2.7:1.
(§1) [^3H]-Thymidine incorporation into DNA was used for the assessment of the various effects (proliferative or inhibitory) of various isoflavones, isoflavone derivatives and known cytotoxic drugs in the above-mentioned cells. Cells were grown until subconfluence using conditions described in Somjen et al. (Somjen et al., 1998) and then treated with various agents for 24 or 48 h as indicated. At the end of incubation, [^3H]-thymidine was added for two hours. Cells were then treated with 10% ice-cold trichloroacetic (TCA) for 5 min and washed twice with 5% TCA and then with cold ethanol. The cellular layer was dissolved in 0.3 ml of 0.3 M NaOH, aliquots were taken for counting radioactivity, and [^3H]-thymidine incorporation into DNA was calculated.

[2] = system: 320DM human colon cancer cells; test: DNA synthesis by [3H]-thymidine incorporation, 320DM cells; format: cell-based; conditions: estradiol 300 nM
Experimental: Cells were cultured in MEM supplemented with 10% FCS and antibiotics. Cells were grown to subconfluence and then treated with various hormones or agents as described by Somjen et al. (Somjen et al., 1998). The cells were characterized in terms of expression of mRNAs for estrogen […] by real time PCR, and the results are summarized in Table 1. N87, 320DM and H295R cells expressed mRNAs for both ERs. The ratio of ERα to ERβ was 1:8.5, 1:30 and 1:1.8 in N87, 320DM and H295R cells, respectively. Ovarian A2780 and prostate C4-24 cells expressed mainly mRNA for ERβ, and the ratio of ERβ to ERα was 300:1 and 70:1, respectively. MLS ovarian cells expressed mRNA only for ERβ. The ratio of ERα to ERβ in T47D cells has been reported to be 9:1.
as §1, with “(Somjen et al., 1998) and then treated with various agents for 24 or 48 h as indicated.” left out, “Cells were then treated with 10% ice-cold trichloroacetic (TCA) for 5 min and washed twice with 5% TCA and then with cold ethanol.” left out

MLS ovarian xenografts = MLS ovarian xenografts in nude mice; format: in vivo
Description: Female CD1 nude mice (8-week old, ˜30 g) were housed and handled with free access to food and water in the animal facility according to the guidelines (1996) of the Institutional Animal Care and Use Committee of the Weizmann Institute of Science, Rehovot, Israel.
Thirty female nude mice (8 weeks old) were inoculated sub-cutaneously (sc) with MLS ovarian carcinoma cells (1.5×10^6/mouse). Ten days later, when the tumors were palpable, the mice were randomly divided into 3 groups (8-10 mice/group). The mice in each group were iv injected every other day either with a vehicle (Neowater, a solubilization enhancer, 0.1 ml), daunomycin dissolved in Neowater (200 μg/mouse in 0.1 ml vehicle, total dose during treatment 1 mg/mouse), or compound 9 dissolved in Neowater (400 μg/mouse in 0.1 ml vehicle, total dose during treatment 2 mg/mouse). During treatment, body weight was recorded to monitor toxicity of the treatment, and the tumors were measured with an external caliper. Tumor volume was calculated using the formula length×width×height×π/6. Statistical significance was assessed using student's t test, and differences were considered significant at p<0.05.

SMILES: C[C@]12CC[C@@H]3c4ccc(O)cc4CC[C@H]3[C@@H]1CC[C@@H]2O [Compound E2, estradiol 17β, reference compound]
- effect on DNA synthesis ([1]; E2 at 3 nM): stimulated DNA synthesis
- effect on DNA synthesis ([1]; E2 at 30 nM): inhibited DNA synthesis
- effect on DNA synthesis [2]: similarly increased

SMILES: CC(C)(C)OC(=O)NCCCCCCNC(=O)COc1ccc2c(=O)c(-c3ccc(O)cc3)coc2c1 [Compound 9]
- tumor growth inhibition compared to untreated mice (MLS ovarian xenografts; 9 iv every other day, 400 μg/mouse in Neowater, total 2 mg/mouse): > 50%

SMILES: COc1cccc2c1C(=O)c1c(O)c3c(c(O)c1C2=O)C[C@@](O)(C(C)=O)C[C@@H]3O[C@H]1C[C@H](N)[C@H](O)[C@H](C)O1 [daunomycin, reference compound]
- tumor growth inhibition compared to untreated mice (MLS ovarian xenografts; daunomycin iv every other day, 200 μg/mouse, total 1 mg/mouse): > 50%
